Article PMC8810793
These are yes or no findings as the source states them, for the method shown. In cells and extracts the contact can be indirect. Some results given as binding are weak or reduced against the parent protein; the word gives no strength.

Amino acid sequences for entries named in this document (tags omitted).
UniProt Q8IWZ3: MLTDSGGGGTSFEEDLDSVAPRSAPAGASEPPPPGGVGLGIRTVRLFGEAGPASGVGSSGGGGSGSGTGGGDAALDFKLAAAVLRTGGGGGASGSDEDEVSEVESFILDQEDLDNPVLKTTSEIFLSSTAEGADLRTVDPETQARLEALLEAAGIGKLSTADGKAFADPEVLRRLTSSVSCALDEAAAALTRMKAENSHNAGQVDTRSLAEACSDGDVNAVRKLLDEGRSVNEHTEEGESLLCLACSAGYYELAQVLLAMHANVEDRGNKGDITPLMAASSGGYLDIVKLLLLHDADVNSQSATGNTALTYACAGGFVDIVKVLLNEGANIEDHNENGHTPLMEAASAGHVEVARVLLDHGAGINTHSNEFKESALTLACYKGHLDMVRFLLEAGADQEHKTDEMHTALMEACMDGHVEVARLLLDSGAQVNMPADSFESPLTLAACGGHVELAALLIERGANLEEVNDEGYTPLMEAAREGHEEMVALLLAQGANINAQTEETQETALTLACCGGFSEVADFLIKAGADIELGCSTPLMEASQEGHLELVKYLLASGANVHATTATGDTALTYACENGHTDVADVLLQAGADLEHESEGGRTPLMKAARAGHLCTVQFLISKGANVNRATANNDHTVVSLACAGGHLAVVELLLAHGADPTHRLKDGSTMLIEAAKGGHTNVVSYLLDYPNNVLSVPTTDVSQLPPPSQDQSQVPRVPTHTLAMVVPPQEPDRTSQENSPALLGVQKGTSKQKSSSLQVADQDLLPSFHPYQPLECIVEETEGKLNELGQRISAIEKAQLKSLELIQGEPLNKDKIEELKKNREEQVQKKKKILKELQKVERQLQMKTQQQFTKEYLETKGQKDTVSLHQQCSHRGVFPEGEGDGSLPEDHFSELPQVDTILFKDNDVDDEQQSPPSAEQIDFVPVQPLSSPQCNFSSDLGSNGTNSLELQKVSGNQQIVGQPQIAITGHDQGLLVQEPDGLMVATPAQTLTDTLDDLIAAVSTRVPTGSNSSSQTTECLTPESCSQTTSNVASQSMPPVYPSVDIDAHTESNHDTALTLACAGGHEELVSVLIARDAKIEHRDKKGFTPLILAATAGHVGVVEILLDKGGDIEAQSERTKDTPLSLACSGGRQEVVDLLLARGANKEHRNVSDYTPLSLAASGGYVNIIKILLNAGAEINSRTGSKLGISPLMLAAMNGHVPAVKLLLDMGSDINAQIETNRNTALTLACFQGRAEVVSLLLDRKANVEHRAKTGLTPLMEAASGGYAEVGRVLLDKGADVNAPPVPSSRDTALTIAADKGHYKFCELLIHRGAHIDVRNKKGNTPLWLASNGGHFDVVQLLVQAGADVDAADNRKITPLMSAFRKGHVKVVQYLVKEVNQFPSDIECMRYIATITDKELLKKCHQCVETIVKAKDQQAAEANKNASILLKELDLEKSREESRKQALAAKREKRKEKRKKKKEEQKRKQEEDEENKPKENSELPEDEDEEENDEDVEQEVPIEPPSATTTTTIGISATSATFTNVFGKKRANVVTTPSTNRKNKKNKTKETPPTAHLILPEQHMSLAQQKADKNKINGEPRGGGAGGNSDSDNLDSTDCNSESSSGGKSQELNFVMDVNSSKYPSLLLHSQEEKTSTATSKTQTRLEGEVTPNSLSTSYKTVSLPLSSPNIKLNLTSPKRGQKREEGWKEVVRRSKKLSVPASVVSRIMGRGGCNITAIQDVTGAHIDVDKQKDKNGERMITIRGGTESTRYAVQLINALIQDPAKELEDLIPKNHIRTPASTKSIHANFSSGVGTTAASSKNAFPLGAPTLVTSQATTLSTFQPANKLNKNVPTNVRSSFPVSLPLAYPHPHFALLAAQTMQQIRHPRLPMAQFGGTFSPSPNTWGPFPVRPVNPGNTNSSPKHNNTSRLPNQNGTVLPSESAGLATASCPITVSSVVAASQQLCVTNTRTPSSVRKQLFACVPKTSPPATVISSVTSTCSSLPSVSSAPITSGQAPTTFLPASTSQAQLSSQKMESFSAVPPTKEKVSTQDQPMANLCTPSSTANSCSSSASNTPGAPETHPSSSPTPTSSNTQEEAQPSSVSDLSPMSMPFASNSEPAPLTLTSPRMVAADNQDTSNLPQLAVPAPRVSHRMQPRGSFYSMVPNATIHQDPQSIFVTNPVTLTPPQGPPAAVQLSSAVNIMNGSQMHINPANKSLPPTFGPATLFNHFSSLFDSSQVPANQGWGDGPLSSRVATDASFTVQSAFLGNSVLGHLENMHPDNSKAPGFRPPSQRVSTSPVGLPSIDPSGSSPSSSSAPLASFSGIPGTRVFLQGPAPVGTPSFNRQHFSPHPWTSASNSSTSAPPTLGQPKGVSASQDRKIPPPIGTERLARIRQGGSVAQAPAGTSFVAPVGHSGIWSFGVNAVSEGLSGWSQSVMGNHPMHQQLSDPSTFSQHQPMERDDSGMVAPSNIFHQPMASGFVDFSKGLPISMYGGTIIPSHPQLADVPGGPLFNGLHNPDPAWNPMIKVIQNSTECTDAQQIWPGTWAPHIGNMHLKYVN
UniProt P46937: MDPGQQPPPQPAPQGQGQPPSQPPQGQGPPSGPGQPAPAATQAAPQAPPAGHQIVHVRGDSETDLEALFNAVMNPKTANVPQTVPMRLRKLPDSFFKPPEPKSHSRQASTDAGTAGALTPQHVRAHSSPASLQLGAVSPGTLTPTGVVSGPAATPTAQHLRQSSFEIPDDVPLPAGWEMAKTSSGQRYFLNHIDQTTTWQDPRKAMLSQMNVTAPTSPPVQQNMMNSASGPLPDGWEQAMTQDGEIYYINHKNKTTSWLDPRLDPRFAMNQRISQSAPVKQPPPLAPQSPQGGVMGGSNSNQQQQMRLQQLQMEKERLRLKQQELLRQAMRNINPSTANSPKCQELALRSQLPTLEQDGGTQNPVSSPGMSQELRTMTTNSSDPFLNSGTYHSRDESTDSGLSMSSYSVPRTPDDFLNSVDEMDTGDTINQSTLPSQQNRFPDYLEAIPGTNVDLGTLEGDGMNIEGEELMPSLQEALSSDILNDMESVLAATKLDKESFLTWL

Target: ankyrin repeat and KH domain containing 1 (ANKHD1) (human (endogenous in HCT116)) (UniProt Q8IWZ3)
Experiment: co-IP; HCT116 cell lysate in RIPA buffer; antibody overnight at 4 °C, protein A/G agarose beads 3 h at 4 °C, three washes with ice-cold RIPA buffer, Western blot

Q: “Yes-associated protein 1 (YAP1) (from UniProt P46937 1-504)” was tested. Which binding did it give?
A: binds
